Assay results: patent US20220259306A1
These are yes or no findings as the source states them, for the method shown. Binding calls can cover weak binding; strength is not graded here.

B1: Mpb416 (antibody, V domains shown)
VH: QVQLQQSVAELVRPGASVKLSCTASGFNIQNTYIHWVKQRPEQGLEWIGKIDPANGDTKYAPTFQGKATITADTSSNTAYLQLSSLTPEDTAIYYCARYRDYLFYYALGYWGQGTSVTVSS
VL: DIVMTQSAPSVPVTPGESVSISCRSSKSLLHSNGNTYLYWFLQRPGQSPQLLIYRMSNLASGVPDRFSGSGSGTAFTLRISRVEAEDVGVYYCMQHLEYPYTFGGGTKLEIK
B2: Mab031 (antibody, V domains shown)
VH: EVQLQQSVAELVRPGASVRLSCTGSGFNIQNTYIHWVKQRPEQGLEWIGRIDPANGDTKYAPKFQGKATITADTSSNTAYLQLSSLTSEDTAIYYCTRYGNYLYYYSLDYWGQGTSVTVSS
VL: DIVMTQAAPSVPVTPGESVSISCRSSKSLLHSNGNTYLYWFLQRPGQSPQLLIYRMSNLASGVPDRFSGSGSGTAFTLRISRVEAEDMGVYYCMQHLEYPYTFGGGTKLEIK
B3: Mab032 (antibody, V domains shown)
VH: EVQLQQSVAELVRPGASVRLSCTGSGFNIENTYMHWLKQRPEQGLEWIGRIDPADGDTQYAPKFQGKATITTDTSSNTAYLQLSSLTSEDTAIYYCARYGNYLFYYSMDYWGQGTSVTVSS
VL: DIVMTQAAPSVPVTPGESVSISCRSSKSLLHSNGNTYLYWFLQRPGQSPQLLIYRMSNLASGVPDRFSGSGSATAFTLRISRVEAEDVGIYYCMQHLEYPYTFGGGTKLEIK
B4: Mab033 (antibody, V domains shown)
VH: EVQLQQSVAEFVRPGASVRLSCTASGFNIENTYIHWLKQRPEQGLEWIGRIDPANGDTQYDPKFQGKATLTAATSSNTAYLQLSGLTSEDTAIYYCTRYGDYLFYYSLKYWGQGTSVTVSS
VL: DIVMTQAAPSVSVTPGESVSISCRSSKSLLHSNGNTYLYWFLQRPGQSPQLLIYRMSNLASGVPDRFSGSGSGTAFTLRISRVEAEDVGVYYCMQHLESPYTFGGGTKLEIK
B5: M15-5 (antibody, V domains shown)
VH: QVQLVQSGAEVKKPGASVKVSCKASGFNIQNTYIHWVKQAPGQGLEWIGKIDPANADTKYAPTFQGRATITADTSTNTAYLELSSLRSEDTAVYYCARYRDYLFYYALGYWGQGTTVTVSS
VL: DIVMTQSPLSLPVTPGEPASISCRSSKSLLHSNANTYLYWYLQKPGQSPQLLIYRMSNLASGVPDRFSGSGSGTDFTLKISRVEAEDVGVYYCMQHLEYPYTFGQGTKLEIK
B6: M15 (antibody, V domains shown)
VH: QVQLQQSVAELVRPGASVKLSCTASGFNIQNTYIHWVKQRPEQGLEWIGKIDPANADTKYAPTFQGKATITADTSSNTAYLQLSSLTPEDTAIYYCARYRDYLFYYALGYWGQGTSVTVSS
VL: DIVMTQSAPSVPVTPGESVSISCRSSKSLLHSNANTYLYWFLQRPGQSPQLLIYRMSNLASGVPDRFSGSGSGTAFTLRISRVEAEDVGVYYCMQHLEYPYTFGGGTKLEIK

How the values were obtained:
[1] = biological target: human NKG2A/CD94 on the cell surface (CHOk1-hNKG2A/CD94 stable cell line) (human); assay: FACS on CHOK1-hNKG2A/CD94 cells, Alexa 488 secondary antibody
[2] = biological target: human NKG2A/CD94 on the cell surface (CHOk1-hNKG2A/CD94 stable cell line) (human); assay: FACS blocking assay: HLA-E-PE binding to CHOk1-hNKG2A/CD94 cells in the presence of the antibody
[3] = biological target: human NKG2A/CD94 on the cell surface (CHOk1-hNKG2A/CD94 stable cell line) (human); assay: FACS on CHOK1-hNKG2A/CD94 cells
[4] = biological target: human NKG2A/CD94 on the cell surface (CHOk1-hNKG2A/CD94 stable cell line) (human); assay: FACS blocking assay: HLA-E binding to NKG2A/CD94 cells in the presence of the antibody

Binder	binding [1]	binding [2]	binding [3]	binding [4]
B1	binds	binds		
B2	binds	binds		
B3	binds	binds		
B4	binds	binds		
B5			binds	binds
B6			binds	binds
